Measured values reported in the supplement of paper PMC6078165.

Test system: MDAMB436
Assay: relative JC-1 red fluorescence (viability) vs pre-drug, coculture with fibroblast (fraction); higher = more viable cancer cells
Procedure: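 JC-1 labelled TNBC cells cocultured 1:1 (1,500 cells each) with CellTrace Violet stained primary or stromal fibroblasts in 384-well plates in FluoroBrite medium, treated with one of 42 anticancer drugs at 0.1, 1, 10 or 100 uM. JC-1 red fluorescence (mitochondrial integrity in cancer cells only) was read by plate reader every 8 h for 72 h. Values are normalised to each well's pre-drug value. The stock of one drug was tenfold lower, so its dose labels may be too high.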

CC(=O)O[C@H]1C(=O)[C@@]2(C)[C@H]([C@H](OC(=O)c3ccccc3)[C@]3(O)C[C@H](OC(=O)[C@H](O)[C@@H](NC(=O)c4ccccc4)c4ccccc4)C(C)=C1C3(C)C)[C@]1(OC(C)=O)CO[C@@H]1C[C@@H]2O [Paclitaxel]
relative JC-1 red fluorescence
Details | 8 h | 16 h | 24 h | 32 h | 40 h | 48 h | 56 h | 64 h | 72 h
0.1 µM, coculture fibroblast: C12385 | 0.8273 | 0.6798 | 0.6503 | 0.5685 | 0.52 | 0.49 | 0.471 | 0.459 | 0.46
0.1 µM, coculture fibroblast: H6013 | 0.871 | 0.751 | 0.768 | 0.783 | 0.803 | 0.845 | 0.846 | 0.818 | 0.844
0.1 µM, coculture fibroblast: H6019 | 0.73326 | 0.633 | 0.615 | 0.554 | 0.532 | 0.528 | 0.515 | 0.516 | 0.509
0.1 µM, coculture fibroblast: H6076 | 0.713 | 0.6313 | 0.628 | 0.604 | 0.613 | 0.6 | 0.641 | 0.655 | 0.662
0.1 µM, coculture fibroblast: H6231 | 0.763 | 0.679 | 0.65125 | 0.5779 | 0.5599 | 0.5372 | 0.5158 | 0.497 | 0.4834
0.1 µM, coculture fibroblast: HADF | 0.8277 | 0.7558 | 0.689 | 0.6671 | 0.643 | 0.657 | 0.615 | 0.6068 | 0.5745
0.1 µM, coculture fibroblast: HCFa | 0.8 | 0.663 | 0.645 | 0.61 | 0.588 | 0.602 | 0.547 | 0.551 | 0.497
0.1 µM, coculture fibroblast: HCPF | 0.7655 | 0.6834 | 0.6488 | 0.6011 | 0.59 | 0.567 | 0.55 | 0.531 | 0.521
0.1 µM, coculture fibroblast: HHSteC | 0.878 | 0.8 | 0.77 | 0.73 | 0.685 | 0.677 | 0.614 | 0.592 | 0.5512
0.1 µM, coculture fibroblast: HMF | 0.765 | 0.658 | 0.6374 | 0.607 | 0.597 | 0.57 | 0.576 | 0.547 | 0.551
0.1 µM, coculture fibroblast: HPFa | 0.909 | 0.876 | 0.814 | 0.76 | 0.7398 | 0.74609 | 0.6811 | 0.6636 | 0.621
0.1 µM, coculture fibroblast: HUF | 0.838 | 0.723 | 0.706 | 0.641 | 0.585 | 0.56 | 0.534 | 0.528 | 0.518
0.1 µM, coculture fibroblast: Hs5 | 0.809 | 0.743 | 0.7264 | 0.6812 | 0.673 | 0.633 | 0.659 | 0.6251 | 0.633
0.1 µM, coculture fibroblast: Hs27A | 0.808 | 0.756 | 0.732 | 0.728 | 0.74 | 0.803 | 0.757 | 0.763 | 0.707
0.1 µM, coculture fibroblast: Hs343T | 0.754 | 0.664 | 0.634 | 0.59 | 0.58 | 0.547 | 0.541 | 0.526 | 0.524
0.1 µM, coculture fibroblast: WS1 | 0.797 | 0.6545 | 0.644 | 0.575 | 0.537 | 0.513 | 0.497 | 0.48 | 0.486
1 µM, coculture fibroblast: C12385 | 0.8158 | 0.6885 | 0.6689 | 0.589 | 0.54 | – | – | – | –
1 µM, coculture fibroblast: H6013 | 0.8528 | 0.736 | 0.746 | 0.755 | 0.754 | – | – | – | –
1 µM, coculture fibroblast: H6019 | 0.7837 | 0.682 | 0.661 | 0.591 | 0.558 | – | – | – | –
1 µM, coculture fibroblast: H6076 | 0.747 | 0.694 | 0.682 | 0.647 | 0.633 | – | – | – | –
1 µM, coculture fibroblast: H6231 | 0.818 | 0.7334 | 0.742 | 0.673 | 0.647 | – | – | – | –
1 µM, coculture fibroblast: HADF | 0.834 | 0.758 | 0.737 | 0.712 | 0.702 | – | – | – | –
1 µM, coculture fibroblast: HCFa | 0.845 | 0.744 | 0.724 | 0.688 | 0.663 | – | – | – | –
1 µM, coculture fibroblast: HCPF | 0.839 | 0.728 | 0.719 | 0.646 | 0.607 | – | – | – | –
1 µM, coculture fibroblast: HHSteC | 0.853 | 0.774 | 0.755 | 0.721 | – | – | – | – | –
1 µM, coculture fibroblast: HMF | 0.801 | 0.683 | 0.674 | 0.627 | – | – | – | – | –
1 µM, coculture fibroblast: HPFa | 0.8881 | 0.815 | 0.783 | 0.745 | – | – | – | – | –
1 µM, coculture fibroblast: HUF | 0.85302 | 0.7497 | 0.724 | 0.642 | – | – | – | – | –
1 µM, coculture fibroblast: Hs5 | 0.771 | 0.73 | 0.72 | 0.659 | – | – | – | – | –
1 µM, coculture fibroblast: Hs27A | 0.858 | 0.804 | 0.781 | 0.757 | – | – | – | – | –
1 µM, coculture fibroblast: Hs343T | 0.785 | 0.675 | 0.663 | 0.619 | – | – | – | – | –
1 µM, coculture fibroblast: WS1 | 0.7867 | 0.6903 | 0.7094 | 0.6396 | – | – | – | – | –

Values are relative to the signal before dosing, not to a vehicle control; the signal also falls without drug.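 Fibroblast labels name human fibroblasts: mostly primary ones from tissues such as uterus (C12385, HUF), lung (H6013), bone (Hs27A), adrenal (HADF) and skin (WS1), plus mammary HMF and breast cancer-associated Hs343T. The cancer cells are basal-like or mesenchymal-like triple-negative breast cancer lines. The paper calls a changed response a hit when it shifts by more than 3x the replicate standard deviation. The tissue of the other fibroblasts is not given here.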
